The target in the experiment is T1, human serum albumin (human, UniProt P02768 25-609).
T1 construct: Antigen in the SPR assay
Nature of the experiment: SPR.

Protein sequences, listed by entry. Tags and fused reporters are not part of them. Residues count along the entry.
UniProt P02768, residues 25-609: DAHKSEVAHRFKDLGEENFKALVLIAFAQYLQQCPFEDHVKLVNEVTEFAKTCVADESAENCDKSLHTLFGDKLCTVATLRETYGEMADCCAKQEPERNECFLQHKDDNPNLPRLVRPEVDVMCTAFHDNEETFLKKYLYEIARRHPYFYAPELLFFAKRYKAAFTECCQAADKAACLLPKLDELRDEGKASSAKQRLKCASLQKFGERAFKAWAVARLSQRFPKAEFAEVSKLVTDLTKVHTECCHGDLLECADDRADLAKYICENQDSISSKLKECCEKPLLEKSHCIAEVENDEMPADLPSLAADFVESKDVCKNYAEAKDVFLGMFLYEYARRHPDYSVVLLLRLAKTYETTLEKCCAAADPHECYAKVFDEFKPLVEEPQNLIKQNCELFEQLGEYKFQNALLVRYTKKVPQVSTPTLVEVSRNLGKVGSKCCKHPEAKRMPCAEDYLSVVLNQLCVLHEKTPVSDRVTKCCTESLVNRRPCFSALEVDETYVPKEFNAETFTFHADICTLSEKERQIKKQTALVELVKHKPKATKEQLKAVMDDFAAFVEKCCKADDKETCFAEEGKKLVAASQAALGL

Results are given in words; binding and its absence hold for the method and conditions named. Some entries that bind do so weakly or less than the wild type.

B1: VHH antibody in which glycine in position 78 of SEQ ID NO: 1 was substituted with alanine (SEQ ID NO: 5) (VHH)
VHH: QVQLVESGGGLVQAGDSLRLSCAASGRTFSGYAMGWFRQAPGKEREFVARINWSGTLTYYADSVKGRFTASRDNAKNTVYLQMNSLKPEDTAVYYCAQRGDSGSNYDPSGYSYWGQGTQVTVSS
notes: Expressed in E. coli; also called G78A mutant
In the case of B1, the binding result is “binds”.

(Values after patent publication US20190375824A1 (PANASONIC INTELLECTUAL PROPERTY MANAGEMENT, published 2019).)
